In PMC5875879:
Results are given in words; binding and its absence hold for the method and conditions named. In cells and extracts the contact can be indirect. Some entries that bind do so weakly or less than the wild type. For some assays here: Where a sequence is shown, tags or fusion partners need not be part of it. Blank lines part the entries; values can stand above or below the molecule they belong to.

The chains behind the UniProt entries cited, without tags or fusion partners.
UniProt O60293: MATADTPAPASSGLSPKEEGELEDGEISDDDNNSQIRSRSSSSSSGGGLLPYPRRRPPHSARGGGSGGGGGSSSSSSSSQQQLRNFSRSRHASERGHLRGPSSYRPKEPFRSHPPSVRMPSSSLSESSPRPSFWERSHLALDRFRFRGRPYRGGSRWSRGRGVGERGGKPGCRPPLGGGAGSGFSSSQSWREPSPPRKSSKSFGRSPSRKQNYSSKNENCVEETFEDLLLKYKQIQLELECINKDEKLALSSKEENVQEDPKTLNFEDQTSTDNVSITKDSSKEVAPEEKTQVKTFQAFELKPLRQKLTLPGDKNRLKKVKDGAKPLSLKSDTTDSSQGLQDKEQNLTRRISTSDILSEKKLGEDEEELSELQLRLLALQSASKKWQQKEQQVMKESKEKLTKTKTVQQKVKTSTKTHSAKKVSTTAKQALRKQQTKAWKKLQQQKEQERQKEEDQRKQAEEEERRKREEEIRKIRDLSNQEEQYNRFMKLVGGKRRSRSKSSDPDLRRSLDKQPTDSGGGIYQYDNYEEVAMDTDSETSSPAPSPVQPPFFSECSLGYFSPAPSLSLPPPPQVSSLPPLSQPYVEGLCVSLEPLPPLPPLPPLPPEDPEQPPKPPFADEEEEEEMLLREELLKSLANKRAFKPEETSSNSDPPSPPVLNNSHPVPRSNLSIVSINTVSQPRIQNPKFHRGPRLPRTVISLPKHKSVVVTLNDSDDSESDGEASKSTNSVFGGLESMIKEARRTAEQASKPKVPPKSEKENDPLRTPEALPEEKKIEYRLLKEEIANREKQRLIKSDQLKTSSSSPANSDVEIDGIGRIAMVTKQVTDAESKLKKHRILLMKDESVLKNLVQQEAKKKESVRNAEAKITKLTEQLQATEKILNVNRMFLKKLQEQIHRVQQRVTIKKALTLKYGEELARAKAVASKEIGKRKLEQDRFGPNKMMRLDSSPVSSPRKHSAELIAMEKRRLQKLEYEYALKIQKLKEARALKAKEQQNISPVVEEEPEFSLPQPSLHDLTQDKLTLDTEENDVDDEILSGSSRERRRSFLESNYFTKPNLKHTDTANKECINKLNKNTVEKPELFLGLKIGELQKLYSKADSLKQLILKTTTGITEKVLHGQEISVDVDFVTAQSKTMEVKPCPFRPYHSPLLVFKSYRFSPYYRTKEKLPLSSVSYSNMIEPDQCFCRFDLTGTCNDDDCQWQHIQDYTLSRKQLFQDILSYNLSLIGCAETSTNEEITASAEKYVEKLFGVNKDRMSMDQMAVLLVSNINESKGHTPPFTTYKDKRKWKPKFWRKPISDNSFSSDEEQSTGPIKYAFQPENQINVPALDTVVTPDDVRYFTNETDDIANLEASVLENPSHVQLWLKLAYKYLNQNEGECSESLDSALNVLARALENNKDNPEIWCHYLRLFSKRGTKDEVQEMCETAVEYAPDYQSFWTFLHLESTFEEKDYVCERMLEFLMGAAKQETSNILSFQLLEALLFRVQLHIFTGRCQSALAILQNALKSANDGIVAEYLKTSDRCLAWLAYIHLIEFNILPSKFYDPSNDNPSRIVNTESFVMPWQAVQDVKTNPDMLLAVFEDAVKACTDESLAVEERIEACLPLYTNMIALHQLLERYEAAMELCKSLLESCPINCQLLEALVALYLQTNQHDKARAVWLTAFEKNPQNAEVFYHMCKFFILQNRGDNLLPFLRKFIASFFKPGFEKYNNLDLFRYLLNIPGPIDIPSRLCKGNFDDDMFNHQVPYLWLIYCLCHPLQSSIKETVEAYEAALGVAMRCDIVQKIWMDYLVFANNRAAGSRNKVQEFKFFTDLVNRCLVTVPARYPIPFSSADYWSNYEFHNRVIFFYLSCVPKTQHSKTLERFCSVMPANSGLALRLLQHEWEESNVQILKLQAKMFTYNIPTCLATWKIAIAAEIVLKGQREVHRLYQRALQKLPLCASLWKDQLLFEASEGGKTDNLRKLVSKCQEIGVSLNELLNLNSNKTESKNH

How the values were obtained:
Flag-HA-MTR4 [1] = target: T1, Flag-HA-MTR4 (UniProt P42285); test: co-sedimentation
T1 sequence: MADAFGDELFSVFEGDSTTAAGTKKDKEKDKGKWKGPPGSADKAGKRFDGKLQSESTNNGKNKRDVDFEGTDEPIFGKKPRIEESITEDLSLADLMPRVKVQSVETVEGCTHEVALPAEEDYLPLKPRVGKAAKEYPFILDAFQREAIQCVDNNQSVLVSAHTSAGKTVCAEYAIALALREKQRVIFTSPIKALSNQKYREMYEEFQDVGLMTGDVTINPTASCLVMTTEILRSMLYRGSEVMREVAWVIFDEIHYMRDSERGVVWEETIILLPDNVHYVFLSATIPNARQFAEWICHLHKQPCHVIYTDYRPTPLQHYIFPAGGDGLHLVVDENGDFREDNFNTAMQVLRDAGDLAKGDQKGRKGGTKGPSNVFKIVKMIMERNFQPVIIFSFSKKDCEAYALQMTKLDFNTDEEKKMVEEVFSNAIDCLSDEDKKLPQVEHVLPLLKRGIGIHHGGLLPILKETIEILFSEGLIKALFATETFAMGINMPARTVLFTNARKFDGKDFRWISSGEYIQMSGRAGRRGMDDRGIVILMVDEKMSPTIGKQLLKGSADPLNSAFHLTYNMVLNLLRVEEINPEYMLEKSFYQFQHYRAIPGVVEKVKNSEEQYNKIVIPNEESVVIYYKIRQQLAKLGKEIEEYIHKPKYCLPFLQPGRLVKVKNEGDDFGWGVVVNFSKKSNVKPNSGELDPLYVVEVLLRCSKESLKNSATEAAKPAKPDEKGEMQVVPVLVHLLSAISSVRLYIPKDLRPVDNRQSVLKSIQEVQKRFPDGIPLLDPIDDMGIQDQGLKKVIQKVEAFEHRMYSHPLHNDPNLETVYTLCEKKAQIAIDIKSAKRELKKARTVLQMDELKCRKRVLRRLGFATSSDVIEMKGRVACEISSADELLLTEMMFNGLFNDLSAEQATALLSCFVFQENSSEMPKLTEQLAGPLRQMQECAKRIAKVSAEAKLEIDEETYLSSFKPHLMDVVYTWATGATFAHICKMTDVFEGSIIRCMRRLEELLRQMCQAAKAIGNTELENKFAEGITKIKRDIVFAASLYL

Flag-HA-MTR4 [2] = target: T1, Flag-HA-MTR4; test: co-IP
[3] = target: T2, MTR4 (endogenous) (human (endogenous in HeLa S3 and J-Lat 10.6)) (UniProt P42285); test: co-IP
T2 sequence: T1 sequence

[4] = target: T2, MTR4 (endogenous) (human (endogenous in HeLa S3 and J-Lat 10.6)); test: co-IP; co-immunoprecipitation of the endogenous proteins with antibodies to ZFC3H1, ZCCHC8, MTR4, RRP6 and RBM7; immunoblot; cells not given
[5] = target: T3, RRP6 (endogenous) (human (endogenous in HeLa S3 and J-Lat 10.6)) (UniProt Q01780); test: as above
T3 sequence: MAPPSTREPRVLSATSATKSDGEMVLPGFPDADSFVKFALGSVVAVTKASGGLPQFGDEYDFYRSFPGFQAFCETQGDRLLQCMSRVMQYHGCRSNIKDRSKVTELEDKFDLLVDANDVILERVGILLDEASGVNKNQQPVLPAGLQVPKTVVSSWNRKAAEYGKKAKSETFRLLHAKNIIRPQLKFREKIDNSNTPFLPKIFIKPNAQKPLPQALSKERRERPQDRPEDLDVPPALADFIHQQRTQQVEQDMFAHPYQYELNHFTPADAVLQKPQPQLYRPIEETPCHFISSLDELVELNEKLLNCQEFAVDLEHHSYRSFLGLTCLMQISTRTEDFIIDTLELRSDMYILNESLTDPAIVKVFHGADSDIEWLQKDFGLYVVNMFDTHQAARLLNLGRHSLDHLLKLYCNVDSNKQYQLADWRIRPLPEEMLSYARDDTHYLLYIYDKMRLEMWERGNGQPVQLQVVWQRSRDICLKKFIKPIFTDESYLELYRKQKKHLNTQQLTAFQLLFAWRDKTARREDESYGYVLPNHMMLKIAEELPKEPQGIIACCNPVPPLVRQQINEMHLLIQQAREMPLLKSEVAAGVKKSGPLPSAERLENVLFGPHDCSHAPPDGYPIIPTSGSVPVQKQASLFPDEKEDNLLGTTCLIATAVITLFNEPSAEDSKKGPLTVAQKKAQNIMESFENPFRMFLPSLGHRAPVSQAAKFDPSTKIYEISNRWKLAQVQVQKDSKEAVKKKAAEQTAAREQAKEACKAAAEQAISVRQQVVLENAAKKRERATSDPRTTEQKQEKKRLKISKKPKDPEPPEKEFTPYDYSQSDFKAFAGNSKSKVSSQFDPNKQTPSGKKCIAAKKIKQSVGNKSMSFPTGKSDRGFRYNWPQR

Flag-HA-RRP6 (human) [6] = target: T4, Flag-HA-RRP6 (human) (UniProt Q01780); test: co-sedimentation
T4 sequence: T3 sequence

Flag-HA-RRP6 (human) [7] = target: T4, Flag-HA-RRP6 (human); test: co-IP
[8] = target: T3, RRP6 (endogenous) (human (endogenous in HeLa S3 and J-Lat 10.6)); test: co-IP

binding (Flag-HA-MTR4 [1]): binds | binding (Flag-HA-MTR4 [2]): binds | binding [3]: binds | binding [4]: binds | binding [5]: binds weakly
Molecule: ZFC3H1 (from UniProt O60293 1-1989)

binding (Flag-HA-MTR4 [1]): binds | binding (Flag-HA-MTR4 [2]): binds | binding [3]: binds | binding [4]: binds
B1: RRP6 (endogenous) (protein, UniProt Q01780 1-885)
chain: T3 sequence

binding (Flag-HA-MTR4 [1]): binds | binding (Flag-HA-RRP6 (human) [6]): binds | binding (Flag-HA-MTR4 [2]): binds | binding [3]: binds | binding (Flag-HA-RRP6 (human) [7]): binds | binding [8]: binds | binding [4]: binds | binding [5]: binds
B2: ZCCHC8 (protein, UniProt Q6NZY4 1-707)
chain: MAAEVYFGDLELFEPFDHPEESIPKPVHTRFKDDDGDEEDENGVGDAELRERLRQCEETIEQLRAENQELKRKLNILTRPSGILVNDTKLDGPILQILFMNNAISKQYHQEIEEFVSNLVKRFEEQQKNDVEKTSFNLLPQPSSIVLEEDHKVEESCAIKNNKEAFSVVGSVLYFTNFCLDKLGQPLLNENPQLSEGWEIPKYHQVFSHIVSLEGQEIQVKAKRPKPHCFNCGSEEHQMKDCPMPRNAARISEKRKEYMDACGEANNQNFQQRYHAEEVEERFGRFKPGVISEELQDALGVTDKSLPPFIYRMRQLGYPPGWLKEAELENSGLALYDGKDGTDGETEVGEIQQNKSVTYDLSKLVNYPGFNISTPRGIPDEWRIFGSIPMQACQQKDVFANYLTSNFQAPGVKSGNKRSSSHSSPGSPKKQKNESNSAGSPADMELDSDMEVPHGSQSSESFQFQPPLPPDTPPLPRGTPPPVFTPPLPKGTPPLTPSDSPQTRTASGAVDEDALTLEELEEQQRRIWAALEQAESVNSDSDVPVDTPLTGNSVASSPCPNELDLPVPEGKTSEKQTLDEPEVPEIFTKKSEAGHASSPDSEVTSLCQKEKAELAPVNTEGALLDNGSVVPNCDISNGGSQKLFPADTSPSTATKIHSPIPDMSKFATGITPFEFENMAESTGMYLRIRSLLKNSPRNQQKNKKASE
